These results are taken from article PMC11648352.

Chains of the proteins cited; added tags and fusions are not shown.
UniProt P17844: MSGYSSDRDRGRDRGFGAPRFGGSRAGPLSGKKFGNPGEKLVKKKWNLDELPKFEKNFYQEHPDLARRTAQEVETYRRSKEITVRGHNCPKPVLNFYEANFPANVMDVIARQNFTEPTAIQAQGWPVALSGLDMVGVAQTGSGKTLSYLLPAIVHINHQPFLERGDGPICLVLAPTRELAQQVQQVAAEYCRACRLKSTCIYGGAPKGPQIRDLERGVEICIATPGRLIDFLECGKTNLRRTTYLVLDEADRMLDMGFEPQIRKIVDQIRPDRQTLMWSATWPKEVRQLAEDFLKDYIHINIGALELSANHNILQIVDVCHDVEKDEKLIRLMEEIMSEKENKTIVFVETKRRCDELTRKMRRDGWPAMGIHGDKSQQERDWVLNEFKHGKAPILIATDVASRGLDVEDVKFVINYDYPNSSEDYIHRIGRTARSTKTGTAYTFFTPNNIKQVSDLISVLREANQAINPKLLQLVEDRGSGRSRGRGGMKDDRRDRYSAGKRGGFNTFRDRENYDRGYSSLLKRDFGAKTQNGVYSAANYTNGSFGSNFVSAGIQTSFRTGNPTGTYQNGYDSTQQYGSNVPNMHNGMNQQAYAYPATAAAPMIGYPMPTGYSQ
UniProt Q09028: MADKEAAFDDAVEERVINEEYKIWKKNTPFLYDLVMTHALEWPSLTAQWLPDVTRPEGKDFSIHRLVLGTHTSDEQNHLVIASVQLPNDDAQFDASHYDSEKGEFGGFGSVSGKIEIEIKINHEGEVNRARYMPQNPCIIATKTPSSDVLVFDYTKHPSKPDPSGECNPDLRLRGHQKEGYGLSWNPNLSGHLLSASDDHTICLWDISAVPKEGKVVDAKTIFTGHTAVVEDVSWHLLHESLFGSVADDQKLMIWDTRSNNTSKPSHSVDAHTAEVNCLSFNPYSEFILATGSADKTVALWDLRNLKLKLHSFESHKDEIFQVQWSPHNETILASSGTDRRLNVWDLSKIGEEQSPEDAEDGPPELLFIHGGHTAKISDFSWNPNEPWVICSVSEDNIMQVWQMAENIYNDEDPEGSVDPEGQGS
UniProt Q16666: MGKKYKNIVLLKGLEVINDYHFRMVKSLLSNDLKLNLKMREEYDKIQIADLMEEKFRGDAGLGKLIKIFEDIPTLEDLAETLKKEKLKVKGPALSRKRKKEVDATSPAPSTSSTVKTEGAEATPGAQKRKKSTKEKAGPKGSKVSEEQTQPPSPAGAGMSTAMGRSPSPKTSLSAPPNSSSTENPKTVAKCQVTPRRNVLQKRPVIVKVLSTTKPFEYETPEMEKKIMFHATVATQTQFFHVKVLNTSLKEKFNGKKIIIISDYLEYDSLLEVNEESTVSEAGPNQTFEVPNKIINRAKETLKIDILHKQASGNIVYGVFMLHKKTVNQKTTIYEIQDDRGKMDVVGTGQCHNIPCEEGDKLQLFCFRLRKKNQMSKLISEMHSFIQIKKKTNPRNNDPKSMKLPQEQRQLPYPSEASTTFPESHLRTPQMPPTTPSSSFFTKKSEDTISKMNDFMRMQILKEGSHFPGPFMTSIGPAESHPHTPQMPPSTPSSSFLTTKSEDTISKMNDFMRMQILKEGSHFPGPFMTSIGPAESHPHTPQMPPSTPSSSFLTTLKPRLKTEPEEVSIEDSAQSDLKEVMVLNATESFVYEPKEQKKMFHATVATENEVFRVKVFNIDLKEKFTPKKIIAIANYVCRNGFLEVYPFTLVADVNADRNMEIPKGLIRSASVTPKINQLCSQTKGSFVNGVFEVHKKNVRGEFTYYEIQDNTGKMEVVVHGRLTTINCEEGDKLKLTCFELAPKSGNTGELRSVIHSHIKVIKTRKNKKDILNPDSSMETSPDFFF

In the assay the target is FLAG-DDX5 (RNA helicase DEAD box protein 5, wild type) (UniProt P17844). Put plainly: affinity purification with mass spectrometry; native whole-cell extract of Dox-induced (1.0 µg/mL, 48 h) FLAG-DDX5 HepaRG cells immunoprecipitated with FLAG Ab or IgG; short SDS-PAGE, in-gel trypsin digestion, label-free quantitative LC-MS/MS.

These are yes or no findings as the source states them, for the method shown. Binding seen in cells or lysates may run through a third protein. These calls come from enrichment with a bait or labelling near it, and not all partners need be listed.

“RBBP4, auxiliary PRC2 subunit (from UniProt Q09028 1-425)”: the binding entry is on record as “binds”.
For “interferon-inducible protein 16 (IFI16) (from UniProt Q16666 1-785)”, the binding result was “binds”.
